# Results as given in patent US20070173470A1, “Methods for delivering extracellular target into cells” (priority 2006, published 2007).
# Test system: CHO cells
# Test: Solution accelerating method, molecule delivery efficiency
# Format: cell-based, Chinese Hamster
# Conditions: mean ± STDEV
smiles,measurement,setting,value
CN1CCN(c2ccc3[nH]c(-c4ccc5[nH]c(-c6ccc(O)cc6)nc5c4)nc3c2)CC1 [Hoechst 33258],Delivery effciency (targeted cells/500 cells),solution 0.1 mg/ml,27.25 ± 7.22 targeted cells/500 cells
same,Delivery effciency (targeted cells/500 cells),solution 0.5 mg/ml,57.7 ± 25.56 targeted cells/500 cells
same,Delivery effciency (targeted cells/500 cells),solution 1 mg/ml,65.48 ± 18.81 targeted cells/500 cells
